# Hit rate of the full screen: of about 340,000 compounds, about 170 (0.05%) were called active. This list was built around the results that the source calls inconclusive (neither active nor inactive); the mix of calls is not that of the screen. Calls come from the whole dose curve; as a rule, active = well fitted inhibition curve with a large enough effect in the signal ratio, with a control signal flat (not every such curve was filed as active); inconclusive = small, poorly fitted or top-dose-only effect, or effect the other way, or a change in a side signal; inactive = flat fitted curve, though single readings scatter; the % refers to the signal ratio. Potencies of inconclusive entries are doubtful fits and often do not repeat.
# Test: qHTS Assay to Find Inhibitors of Chronic Active B-Cell Receptor Signaling;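 for activity change, negative = inhibition: plate controls were basal doxycycline-induced cells for no effect and cells given 10 µM MG132 for full effect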
# Conditions: ABC-DLBCL IkBa-CBG/CBR reporter, luminescence ratio (green luciferase fused to IkBa over red control in TMD8 lymphoma cells), 4 h; activity change, negative = inhibition: at 46.1 µM (top of the series) unless noted
# Summary of the method: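 TMD8 ABC-DLBCL cells carrying doxycycline-inducible green luciferase fused to IkappaBalpha plus unfused red luciferase were exposed to compounds (up to 46 uM) for 4 hrs at 37C. Activity came from the overlap-corrected green/red luminescence ratio.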
# Potency is the fitted concentration of half-maximal effect.
Structure (SMILES),Potency,"activity change, negative = inhibition"
COc1cccc(C2=CC(c3cccc(OC)c3OC(F)F)n3nnnc3N2)c1 (stereo not drawn),"inconclusive: 20.6 µM [falling, partial curve, poor fit]",
COc1ccc(C(C[N+](=O)[O-])C2(c3ccc(OC)c(OC)c3)C(=O)c3ccccc3C2=O)cc1 (stereo not drawn),,inactive: -5.3%
Cc1ccccc1CN1CCN(c2nc3ccccc3s2)CC1,,inconclusive: 4.9%
O=C(C1CC1)N1CCc2cc(S(=O)(=O)N(CCO)Cc3ccccc3)ccc21,"inconclusive: 0.517 µM [falling, full curve]",
Cc1ccc(-c2nc3ncccc3n2O)cc1,,inactive: -4.53%
COc1ccc(CNC(=O)COC(=O)c2n[nH]c3ccccc23)cc1,"inconclusive: 11.2 µM [falling, partial curve, poor fit]",
Cc1c(CCOC(=O)C23CC4CC(CC(C)(C4)C2)C3)sc[n+]1CC(=O)c1ccccc1,,inconclusive: 1.36%
Cc1cc([N+](=O)[O-])ccc1NCc1ccccc1,,inactive: 6.67%
N#Cc1nc(-c2ccc(OCc3ccccc3Cl)cc2)oc1NCCCn1ccnc1,,inactive: 1.15%
CCOC(=O)C1CCN(Cc2ccc(OCc3ccccc3)cc2)CC1,,inconclusive: 3.37%
CCOC(=O)N1CCN(c2ccc(S(=O)(=O)N3CCOCC3)cc2[N+](=O)[O-])CC1,,inconclusive: 13.6%
COc1ccccc1/C(C)=N/Oc1cc(N)cc([N+](=O)[O-])c1,,inconclusive: 1.81%
CCOc1cc(/C=N\NC(=O)OC(C)(C)C)ccc1OC(=O)c1ccco1,"inconclusive: 35.5 µM [falling, single point]",
COCCN1C(=O)c2[nH]nc(-c3ccccc3O)c2C1c1ccc(OC)cc1 (stereo not drawn),"inconclusive: 7.08 µM [falling, partial curve]",
NC(=O)c1ccc(N=Nc2c(-c3ccccc3)[nH]n(-c3ccccc3)c2=O)cc1,,inconclusive: 10.3%
CC(=O)Nc1cccc2ncccc12,,inactive: 4.91%
CCC(=O)c1ccccc1OCCCN1CCC(Cc2ccccc2)CC1,"inconclusive: 25.1 µM [falling, partial curve]",
C=C(C)CN(CC)Cc1c(C(=O)N(C)CCCC)nc2ccccn12,,inactive: -2.32%
COc1cc(OC)c2c(-c3cccc(-c4ccc(C(F)(F)F)cc4)c3)cc(=O)oc2c1,,inconclusive: -0.558%
CC(=O)c1ccc(NC(=O)CSc2nnc(-c3ccncc3)n2-c2ccccc2)cc1,,inactive: -3.63%
CN(C)CCC(c1ccc(Br)cc1)c1ccccn1 (stereo not drawn),"inconclusive: 7.94 µM [falling, partial curve]",
CCN1CCN(CCCNC(=O)c2cc3c(=O)[nH]c4ccccc4c3s2)CC1,,inconclusive: -11.8%
C[C@H](NC(=O)c1nc[nH]c1C(=O)NCc1ccc(CNC(=O)OC(C)(C)C)cc1)C(=O)OCc1ccccc1,"inconclusive: 29.1 µM [falling, single point]",
CN1C(=O)/C(=C/c2cn(CC(=O)N3CCCCC3)c3ccccc23)NC1=S,,inconclusive: 3.08%

# Four entries out of the list, ordered by heavy-atom count, largest number first:
Structure (SMILES),Potency,"activity change, negative = inhibition"
COc1cc(OC)c2c(-c3cccc(-c4ccc(C(F)(F)F)cc4)c3)cc(=O)oc2c1,,inconclusive: -0.558%
COc1cccc(C2=CC(c3cccc(OC)c3OC(F)F)n3nnnc3N2)c1 (stereo not drawn),"inconclusive: 20.6 µM [falling, partial curve, poor fit]",
CCC(=O)c1ccccc1OCCCN1CCC(Cc2ccccc2)CC1,"inconclusive: 25.1 µM [falling, partial curve]",
COc1ccccc1/C(C)=N/Oc1cc(N)cc([N+](=O)[O-])c1,,inconclusive: 1.81%

# (continued)

Structure (SMILES),Potency,"activity change, negative = inhibition"
O=C(N/N=C/c1cc(Br)c(O)c(Br)c1)c1cccc(C(F)(F)F)c1,,inactive: -0.138%
Cc1ccc2nc(SCC(=O)Nc3c(C)n(C)n(-c4ccccc4)c3=O)[nH]c2c1,,inconclusive: -2.72%
COc1cc2c(cc1OC)C(C)N(C(=O)c1cc3c(=O)oc4ccc(C)cc4c3s1)CC2 (stereo not drawn),,inconclusive: 3.37%
CC1(C)CC2CC(C)(CN2C(=O)COC(=O)c2cc(Cl)cc(Cl)c2N)C1 (stereo not drawn),"inconclusive: 2.31 µM [rising, partial curve, poor fit]",
Cc1ccc(-c2nc(CSc3nc4ccccc4c(=O)n3CCO)cs2)cc1,,inconclusive: -4.59%
CC(C)Cc1cc(CN2CCC(CO)(Cc3cccc(C(F)(F)F)c3)CC2)[nH]n1,"inconclusive: 11.2 µM [falling, partial curve, poor fit]",
CC1Nc2ccc(C(=O)NC3CCCCC3)cc2NC1=O (stereo not drawn),,inactive: 10.3%
COc1ccccc1C(=O)NCC(=O)N/N=C/c1ccc2c(c1)OCO2,"inconclusive: 17.8 µM [falling, partial curve]",
CC1CC(C)(C)NC(=S)N1CCCC(=O)Nc1ccc(F)c(F)c1 (stereo not drawn),,inconclusive: 2.73%
Cc1cc(C)c(S(=O)(=O)N2CCCCC2CCNC(=O)C(=O)NCc2ccccn2)c(C)c1 (stereo not drawn),,inconclusive: -7.92%
COc1cc(/C=N\NC(=O)c2ccc(-c3ccccc3)cc2)cc(OC)c1O,,inconclusive: -18.2%
O=C(N/N=C/C(Cl)=C/c1ccc([N+](=O)[O-])cc1)C(=O)Nc1cccc(C(=O)O)c1,"inconclusive: 28.2 µM [falling, partial curve]",
O=C(Nc1ccccc1SCC1CSc2nc3ccccc3c(=O)n21)c1ccccc1 (stereo not drawn),,inconclusive: 5.72%
COc1ccccc1Oc1cn[nH]c1-c1ccc(O)cc1O,,inactive: -7.59%
CC(C)NC(=O)C1CCN(C2CCN(CC3CC=CCC3)CC2)CC1 (stereo not drawn),,inconclusive: 2.23%
C#CCOCCOCCOCCNc1nc(N2CCOCC2)nc(N2CCN(C(=O)[C@H](CC(N)=O)n3cc([C@@H](N)C(C)C)nn3)CC2)n1,,inactive: 2.09%
COC(=O)c1cc2c(=O)c3ccccc3oc2nc1/C=C/N(C)C,,inactive: 1.78%
COc1ccc2[nH]c3c(c2c1)CCN1C(=O)C(CC(=O)NCc2cccc(C(F)(F)F)c2)C[C@H](C(=O)N2CCCCC2)[C@@]31C (stereo partly drawn),"inconclusive: 20.6 µM [falling, partial curve, poor fit]",
CCc1ccc(NC(=O)COc2ccc(F)cc2C(=O)c2cnn(-c3ccccc3)c2)cc1,,inconclusive: 8.8%
CCC/C(=C1/c2ccccc2C(=O)N1c1ccccc1)c1ccc2[nH]ccc2c1,,inconclusive: 0.637%
O=C(NCCc1c[nH]c2ccccc12)C(=O)NCC1OCCCN1S(=O)(=O)c1ccccc1 (stereo not drawn),,inactive: -0.677%
COc1ccccc1N(CC(=O)Nc1ccc2c(c1)OCCO2)S(=O)(=O)c1ccc(C)cc1,,inconclusive: 8.49%
CCOc1ccc(NC(=O)N[C@@H](CCSC)C(=O)OC)cc1,,inconclusive: 2.83%
CCN(CC)S(=O)(=O)c1cccc(NC(=O)Nc2cccc(C(F)(F)F)c2)c1,,inconclusive: 2.36%
